# Test system: adult fleas (C. felis)
# Test: Efficacy against fleas on mice (Example 2A)
# Type: in vivo, Ctenocephalides felis
# Conditions: in general over the experiment
# Procedure: Mice were divided into groups of three, and treated topically with 100 ppm body weight, orally with 10 mg/kg bodyweight, or subcutaneously with 10 mg/kg bodyweight of Compound 11-1, fipronil (positive control), or nothing (negative control). These mice were sedated and infested with adult fleas (C. felis) 1, 3, 6, and 24 hr after treatment. Fleas were recovered from the mice after approximately 30 minutes of feeding. The assessment of flea inhibition (% of dead and damaged fleas) was conducted 1 and 24 hr after each infestation.
row,Compound,Damaged fleas relative to killed fleas
1,"N#Cc1nn(-c2c(Cl)cc(C(F)(F)F)cc2Cl)c(N)c1[S+]([O-])C(F)(F)F (centres unmarked) [fipronil, reference compound]",killed and damaged fleas were generally found in equal amounts
2,"Cc1cc(C2=NOC(c3cc(Cl)cc(Cl)c3)(C(F)(F)F)C2)ccc1C(=O)NCC(=O)NCC(F)(F)F (racemic) [Compound 11-1, 4-[5-(3,5-dichlorophenyl)-5-trifluoromethyl-4,5-dihydroisoxazol-3-yl]-2-methyl-N-[(2,2,2-trifluoro-ethylcarbamoyl)-methyl]-benzamide]",only a few damaged fleas were found relative to killed fleas

# Reference: patent publication US20240239759A1, “ISOXAZOLINE COMPOSITIONS AND THEIR USE AS ANTIPARASITICS” (Intervet Inc., priority 2007, published 2024)
